# Source: PubChem BioAssay AID540256 (National Center for Advancing Translational Sciences (NCATS), 2011)
# Where “and” joins values, the source holds several entries; their conditions need not be identical. Equal entries are not always repeated. Screen size: about 300,000 compounds; about 3,700 (1.2%) were called active. The inconclusive results got no clear call from the source; some entries with a clear call stand among them for comparison. The call rests on the fitted dose curve; tested in HEK293 cells. Potencies of inconclusive entries are doubtful fits and often do not repeat.
# Experiment: qHTS for Inhibitors of binding or entry into cells for Lassa Virus; further: nearly all actives have a fitted effect of over 50% in size
# Conditions: Lassa virus pseudotype entry inhibition, cell reporter; series mostly up to 37.9 µM
# Potency means the concentration at half of the fitted maximal effect.
row,SMILES,Potency
1,Cc1ccc(CN2CCN(C3CCOCC3)CC2CCO)cc1 (stereo not given),"inconclusive: 35.5 µM [activator, single point]"
2,CN1c2ccccc2N(C)C1(C)c1ccccc1,"inconclusive: 23.1 µM [inhibitor, partial curve, poor fit]"
3,COc1ccc(S(=O)(=O)N2c3ccccc3OCC2C)cc1 (stereo not given),"inconclusive: 1 µM [inhibitor, full curve]"
4,COC(=O)c1ccc2nc(-c3ccc4c(c3)OCO4)cn2c1,active: 2 µM
5,O=C(Cn1c(-c2cccs2)cc2ccccc21)NCc1ccccc1Br,inactive
6,COC(=O)c1sccc1-n1cccc1C(=O)C(=O)Nc1ccc(F)cc1,"inconclusive: 35.5 µM [inhibitor, single point]"
7,O=C(COC(=O)c1cccc(N2C(=O)C3CC=CCC3C2=O)c1)c1ccccc1 (stereo not given),inactive
8,COc1ccc(N2CC(NC(=O)COc3ccc4ccccc4c3)CC2=O)cc1 (stereo not given),inactive
9,O=C(N/N=C/c1ccc(OC(=O)c2ccc(Br)cc2)cc1)c1ccncc1,inactive
10,O=C(NNC(=O)c1cc(-c2cccnc2)nc2ccccc12)Nc1ccc(Cl)cc1,"inconclusive: 3.16 µM [activator, single point]"
11,COC(=O)C/C=C/[C@@H](C)[C@@H](/C=N/OC[C@H]1O[C@H](c2ccccc2)C=C[C@@H]1Oc1ccc(OC)cc1)OC,"inconclusive: 13 µM [inhibitor, partial curve]"
12,O=C(Cn1c(=O)n(Cc2ccc(C(=O)NCc3ccccc3Cl)cc2)c(=O)c2ccccc21)Nc1ccc(F)c(Cl)c1,"inconclusive: 1 µM [activator, full curve]"
13,CC(=O)c1ccc(S(=O)(=O)NC2CCCCCCC2)cc1,"inconclusive: 35.5 µM [inhibitor, single point]"
14,CCCc1ncc(C(O)(c2ccccc2)c2ccc(C)cc2)n1C (stereo not given),"inconclusive: 35.5 µM [inhibitor, partial curve, poor fit]"
15,CN(Cc1ccccc1)S(=O)(=O)c1ccc(Cl)c(C(=O)OCC(N)=O)c1,inactive
16,COc1ccc(/C=N/NC(=O)C(C)n2cnc3ccccc3c2=O)cc1 (stereo not given),"inconclusive: 17.8 µM [activator, single point]"
17,O=C(Nc1ccc(N2CCOCC2)nc1)c1ccc(F)cc1,inactive
18,COc1cccc(CNC(=O)c2ccc3c(c2)nc2n3CCCCC2)c1OC,"inconclusive: 25.1 µM [inhibitor, single point]"
19,CCc1ccc(NC(=O)c2nnn(Cc3cccc(C(F)(F)F)c3)c2N)cc1,inactive
20,Cc1ccc(NC(=O)N(Cc2ccc3c(c2)OCO3)C2CCN(Cc3ccccc3)CC2)cc1C,"inconclusive: 22.4 µM [inhibitor, single point]"
21,CC(=O)CC1OC(=O)C(Br)=C1NCc1ccccc1 (stereo not given),"inconclusive: 11.6 µM [inhibitor, single point]"
22,CC(C)NC(=O)CSc1nc2ccccc2n1-c1ccccc1,inactive
23,Cc1c(NC(=O)/C(C#N)=C/c2ccccc2)c(=O)n(-c2ccccc2)n1C,inactive

# Reprinted at random: 2 entries already listed
row,SMILES,Potency
16,COc1ccc(/C=N/NC(=O)C(C)n2cnc3ccccc3c2=O)cc1 (stereo not given),"inconclusive: 17.8 µM [activator, single point]"
13,CC(=O)c1ccc(S(=O)(=O)NC2CCCCCCC2)cc1,"inconclusive: 35.5 µM [inhibitor, single point]"

# (more compounds)

row,SMILES,Potency
1,COc1cc(NC(=O)c2cccc(F)c2)ccc1NC(=O)c1cc2ccccc2o1,"inconclusive: 4.47 µM [inhibitor, full curve, poor fit]"
2,CN1C(=O)C2C=CC1C1C(=O)N(c3ccccc3)C(=O)C21 (stereo not given),"inconclusive: 2.06 µM [activator, partial curve, poor fit]"
3,COc1ccc(NC(=O)CN2C(=O)c3ccccc3Sc3ccc(C(=O)N4CCOCC4)cc32)c(OC)c1,"inactive and inconclusive: 31.6 µM [activator, single point]"
4,CC1CCc2nc(NC(=O)C3CCCO3)sc2C1 (stereo not given),"inconclusive: 8.2 µM [inhibitor, partial curve, poor fit]"
5,O=C(CSCc1nc2ccccc2[nH]1)Nc1ccc2ccccc2c1,inactive
6,Cc1cc(CNC(=O)Nc2ccc3c(c2)OCO3)nn1C,inactive
7,CC(C)CC(=O)NC(=S)Nc1ccccn1,"inconclusive: 29.1 µM [activator, single point]"
8,Cc1ccc2c(c1C)NC(C(=O)O)C1CC=CC21 (stereo not given),inactive
9,Cc1ccc(S(=O)(=O)Oc2cccc(N3C(=O)C4CC=CCC4C3=O)c2)cc1 (stereo not given),"inconclusive: 29.1 µM [inhibitor, single point]"
10,Oc1ccccc1C1N=C(c2ccccc2)NC(c2ccccc2)=N1,inactive
11,O=C(Cc1ccc(S(=O)(=O)N2CCOCC2)s1)Nc1ccc(Br)c(C(F)(F)F)c1,inactive
12,O=C(c1cc2cc(Br)ccc2s1)N1CCOCC1,"inconclusive: 0.282 µM [inhibitor, partial curve, poor fit]"
13,COc1ccc(-c2cc(C(F)(F)F)n3ncc(C(=O)O)c3n2)cc1OC,inactive
14,CCN(CC)c1ccc(-c2n[nH]c(=S)n2-c2ccccc2)cc1,"inconclusive: 7.08 µM [inhibitor, full curve, poor fit]"
15,CCNc1nc(NC(C)(C)C)nc(N2CCCC2)n1,"inconclusive: 15.8 µM [inhibitor, single point]"
16,O=C(CS(=O)(=O)c1cccc2nsnc12)Nc1cc(F)ccc1F,"inconclusive: 6.31 µM [inhibitor, partial curve, poor fit]"
17,CCOc1cc(NC(=O)c2ccco2)c(OCC)cc1NC(=O)COc1ccccc1,"inconclusive: 11.6 µM [inhibitor, partial curve, poor fit]"
18,CSc1ccc(CC2C(=O)Nc3ccccc32)cc1 (stereo not given),"inconclusive: 1.78 µM [inhibitor, partial curve, poor fit]"
19,O=[N+]([O-])c1cccc(-c2nnc(-c3ccccc3)o2)c1,"inconclusive: 3.16 µM [activator, partial curve, poor fit]"
20,CC(C)(C)c1cc(NC(=O)c2cccnc2)no1,"inconclusive: 3.26 µM [activator, single point]"
21,O=C(N/N=C\c1cc(Cl)ccc1O)c1ccc(S(=O)(=O)N2CCCCC2)cc1,"inconclusive: 1.78 µM [inhibitor, full curve]"
22,COc1ccc(O)c(/C=N/NC(=O)CCC(=O)Nc2cccc(C)c2)c1,"inconclusive: 14.1 µM [inhibitor, partial curve, poor fit]"
